Laboratory results published in PMC5640644, “HDX reveals the conformational dynamics of DNA sequence specific VDR co-activator interactions” (Nature Communications, 2017).
For at least one entry, the source does not settle the construct or the ends of the probe. For some assays here: At least one verdict was read from the data and is not stated in words by the source.

Amino acid sequences for entries named in this document (tags omitted). A change or cut given only in a name is not applied to a line headed by its entry.
UniProt P19793: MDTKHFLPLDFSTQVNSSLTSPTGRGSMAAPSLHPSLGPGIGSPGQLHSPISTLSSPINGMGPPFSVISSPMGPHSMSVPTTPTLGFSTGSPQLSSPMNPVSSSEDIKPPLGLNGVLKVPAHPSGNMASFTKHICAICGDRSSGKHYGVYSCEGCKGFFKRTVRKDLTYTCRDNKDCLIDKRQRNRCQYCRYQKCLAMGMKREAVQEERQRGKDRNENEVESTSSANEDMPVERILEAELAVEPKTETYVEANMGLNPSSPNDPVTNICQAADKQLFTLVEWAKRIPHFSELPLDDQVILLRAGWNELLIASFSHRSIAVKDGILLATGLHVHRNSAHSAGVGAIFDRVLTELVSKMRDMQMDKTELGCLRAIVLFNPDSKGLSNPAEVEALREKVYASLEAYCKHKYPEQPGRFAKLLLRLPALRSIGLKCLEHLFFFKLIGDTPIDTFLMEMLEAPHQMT

Legend:
[1] = system: VDR (His-hVDR, del151-190) + RXRα (Flag-hRXRα); assay: EMSA; settings: ligand-free; HDX: heterodimer ~10 uM, DNA 1.5x molar ratio, ligand 10x excess; protein buffer 50 mM Tris pH 8.0, 150 mM NaCl, 10% glycerol, 2 mM DTT; recombinant protein; protein details: His,Flag
[2] = system: VDR (His-hVDR, del151-190) + RXRα (Flag-hRXRα); assay: HDX-MS; settings: HDX: heterodimer ~10 uM, DNA 1.5x molar ratio, ligand 10x excess, protein buffer 50 mM Tris pH 8.0, 150 mM NaCl, 10% glycerol, 2 mM DTT, recombinant protein, protein details: His,Flag
[3] = molecular target: RXRα (Flag-hRXRα) (Homo sapiens) (UniProt P19793); assay: HDX-MS; settings: Cmpd1, no VDR; HDX: heterodimer ~10 uM, DNA 1.5x molar ratio, ligand 10x excess; protein buffer 50 mM Tris pH 8.0, 150 mM NaCl, 10% glycerol, 2 mM DTT; recombinant protein; residues 1-462; protein details: Flag

| Sequence | binding result [1] | binding result ([2]; 1,25D3) | binding result ([2]; Cmpd1) | binding result ([2]; Cmpd2) | binding result [3] | binding result ([2]; Cmpd3) |
| --- | --- | --- | --- | --- | --- | --- |
| CGTAGGTCAATCAGGTCACGTCGT (double strand) [DR3 VBS] | binds | binds | binds | binds | binds | – |
| CTAGGTGAATGAGGACAT (double strand) [BGLAP VBS (rat)] | – | binds | – | – | – | binds |
| CAAGGGGTAGTGAGGTCAAAAGCA (double strand) [TRPV6 VBS] | – | binds | – | – | – | binds |
| GGTGACTCACCGGGTGAACGGGGGCA (double strand) [BGLAP* VBS (human)] | – | binds | – | – | – | – |
| CTAGCTCCCGAGGTCAGCGACGGCGCAGG (double strand) [DR3 half-site VBS] | binds | binds | binds | binds | – | – |
